Article PMC9745799, “Polymyxin Stereochemistry and Its Role in Antibacterial Activity and Outer Membrane Disruption” (ACS Infectious Diseases, 2022)
Positions of bridges follow the written chain, without caps; N, C: chain ends. Non-standard residues stand in square brackets, D forms with d. Residues, ends and D or L forms follow the SMILES beside them. dDab = NCC[C@@H](N)C(=O)O; Dab = NCC[C@H](N)C(=O)O

Tested on: LPS from E. coli (O55:B5)
Experiment: Isothermal titration calorimetry (ITC), LPS binding
Details: one-site model, assuming 20 kDa molecular weight of LPS, 37 °C
Description: Stock solutions of LPS (10 mg/mL, 0.5 mM) were prepared in 20 mM HEPES at pH 7 by suspension, sonication, and temperature cycling between 4 and 60 °C and stored overnight prior to use. LPS from E. coli (O55:B5) was used. Lipopeptide solutions (1 mM in 20 mM HEPES, pH 7) were titrated into a suspension of LPS (0.020 mM) in the same buffer. Control titrations included the titration of peptide into buffer and buffer into the LPS suspension to determine the corresponding heat of dilution. All binding experiments were performed using a MicroCal PEAQ-ITC Automated microcalorimeter (Malvern Panalytical Ltd., Malvern, UK). The samples were equilibrated to 37 °C prior to measurement. The titrations were conducted at 37 °C under constant stirring at 750 rpm. Each experiment consisted of an initial injection of 0.3 μL followed by 25 separate injections of 1.5 μL into the sample cell of 200 μL. The time between each injection was 180 s, and the measurements were performed with the reference power set at 5 μcal s^–1 and the feedback mode set at “low”. For all calculations performed, an estimated molecular weight of 20 kDa for LPS was applied. The calorimetric data thus obtained were analyzed using MicroCal PEAQ-ITC Analysis Software Version 1.20 (Malvern Panalytical Ltd., Malvern, UK), where the integrated heat signal is corrected for the heat of dilution of the titrant.

Row | SMILES | Peptide/LPS, molar ratio of peptide to LPS preparation
1 | CC(C)C[C@@H]1NC(=O)[C@@H](Cc2ccccc2)NC(=O)[C@H](CCN)NC(=O)[C@@H](NC(=O)[C@H](CCN)NC(=O)[C@@H](N)[C@@H](C)O)CCNC(=O)[C@H]([C@@H](C)O)NC(=O)[C@H](CCN)NC(=O)[C@H](CCN)NC1=O [PMBN, polymyxin B nonapeptide, reference compound] (H-T[Dab][Dab][Dab][dF]L[Dab][Dab]T; lactam 3-C (inferred); N-terminus assumed) | 3.5
2 | CC(C)C[C@H]1NC(=O)[C@H](Cc2ccccc2)NC(=O)[C@@H](CCN)NC(=O)[C@H](NC(=O)[C@@H](CCN)NC(=O)[C@H](N)[C@H](C)O)CCNC(=O)[C@@H]([C@H](C)O)NC(=O)[C@@H](CCN)NC(=O)[C@@H](CCN)NC1=O [ent-PMBN] (H-[dT][dDab][dDab][dDab]F[dL][dDab][dDab][dT]; lactam 3-C) | 4.3
